Source: the supplement of paper PMC7661543
± gives the standard deviation of the averaged measurements. The effect of the compound repeats well; differences between the knockouts mostly do not.

System: MDA-MB-231
Experiment: relative cell number vs DMSO control (72 h) (% of DMSO); higher = less growth inhibition (more cells)
Method: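 QMAP-Seq: a pool of 5 breast cancer cell lines (ZR-75-1, SKBR3, HCC-38, MDA-MB-231, BT-20), each carrying 12 doxycycline-inducible Cas9 sgRNA perturbations (11 knockouts plus non-targeting sgNT), was treated with compounds for 72 h at four 10-fold doses (10 nM-10 uM or 1 nM-1 uM range). Barcodes were amplified and sequenced, and cell number was interpolated from 293T spike-in standard curves. The result is expressed as % of the median of DMSO wells. Two biological replicates.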

CCn1c(=O)c2c(nc(/C=C/c3ccc(OC)c(OC)c3)n2C)n(CC)c1=O [Istradefylline]
Conditions | relative cell number
sgRNA knockout: sgATF3, 10 nM | 91.8 ± 8.4
sgRNA knockout: sgATF3, 100 nM | 87 ± 1.9
sgRNA knockout: sgATF3, 1000 nM | 94 ± 1.7
sgRNA knockout: sgATF3, 10000 nM | 121.98 ± 0.085
sgRNA knockout: sgATF4, 10 nM | 88.8 ± 32
sgRNA knockout: sgATF4, 100 nM | 115 ± 31
sgRNA knockout: sgATF4, 1000 nM | 143 ± 6.9
sgRNA knockout: sgATF4, 10000 nM | 92.3 ± 24
sgRNA knockout: sgATF6, 10 nM | 107 ± 6.5
sgRNA knockout: sgATF6, 100 nM | 80.9 ± 35
sgRNA knockout: sgATF6, 1000 nM | 105 ± 7.5
sgRNA knockout: sgATF6, 10000 nM | 120 ± 3.8
sgRNA knockout: sgATG7, 10 nM | 105 ± 8.1
sgRNA knockout: sgATG7, 100 nM | 98 ± 1.8
sgRNA knockout: sgATG7, 1000 nM | 98.4 ± 13
sgRNA knockout: sgATG7, 10000 nM | 90.5 ± 16
sgRNA knockout: sgERN1, 10 nM | 84.2 ± 12
sgRNA knockout: sgERN1, 100 nM | 100 ± 4.8
sgRNA knockout: sgERN1, 1000 nM | 87.8 ± 26
sgRNA knockout: sgERN1, 10000 nM | 103 ± 9.2
sgRNA knockout: sgHSF1, 10 nM | 87.8 ± 12
sgRNA knockout: sgHSF1, 100 nM | 88.1 ± 9.8
sgRNA knockout: sgHSF1, 1000 nM | 91.12 ± 0.69
sgRNA knockout: sgHSF1, 10000 nM | 82.7 ± 18
sgRNA knockout: sgHSF2, 10 nM | 126 ± 12
sgRNA knockout: sgHSF2, 100 nM | 79.6 ± 32
sgRNA knockout: sgHSF2, 1000 nM | 90.4 ± 1.1
sgRNA knockout: sgHSF2, 10000 nM | 116 ± 4.3
sgRNA knockout: sgKEAP1, 10 nM | 88 ± 5.2
sgRNA knockout: sgKEAP1, 100 nM | 94.7 ± 15
sgRNA knockout: sgKEAP1, 1000 nM | 86.7 ± 27
sgRNA knockout: sgKEAP1, 10000 nM | 72.6 ± 1.2
sgRNA knockout: sgNFE2L2, 10 nM | 89.7 ± 15
sgRNA knockout: sgNFE2L2, 100 nM | 103 ± 5.4
sgRNA knockout: sgNFE2L2, 1000 nM | 84.7 ± 17
sgRNA knockout: sgNFE2L2, 10000 nM | 104 ± 8.1
sgRNA knockout: sgSLC35F2, 10 nM | 103 ± 6.5
sgRNA knockout: sgSLC35F2, 100 nM | 84.5 ± 5.9
sgRNA knockout: sgSLC35F2, 1000 nM | 98.9 ± 11
sgRNA knockout: sgSLC35F2, 10000 nM | 109 ± 15
sgRNA knockout: sgXBP1, 10 nM | 87.9 ± 22
sgRNA knockout: sgXBP1, 100 nM | 104 ± 14
sgRNA knockout: sgXBP1, 1000 nM | 93.4 ± 11
sgRNA knockout: sgXBP1, 10000 nM | 98.8 ± 12

Nc1nc(Cl)nc2c1ncn2[C@@H]1O[C@H](CO)[C@@H](O)[C@@H]1F [Clofarabine]
Conditions | relative cell number
sgRNA knockout: sgATF3, 10 nM | 73.5 ± 1.5
sgRNA knockout: sgATF3, 100 nM | 34.9 ± 12
sgRNA knockout: sgATF3, 1000 nM | 15.8 ± 1
sgRNA knockout: sgATF3, 10000 nM | 14.2 ± 2.9
sgRNA knockout: sgATF4, 10 nM | 72.2 ± 52
sgRNA knockout: sgATF4, 100 nM | 41.1 ± 6.7
sgRNA knockout: sgATF4, 1000 nM | 19.3 ± 3.5
sgRNA knockout: sgATF4, 10000 nM | 18.8 ± 8.9
sgRNA knockout: sgATF6, 10 nM | 73.3 ± 3.3
sgRNA knockout: sgATF6, 100 nM | 38.5 ± 5.8
sgRNA knockout: sgATF6, 1000 nM | 14.5 ± 3.5
sgRNA knockout: sgATF6, 10000 nM | 12.9 ± 2.7
sgRNA knockout: sgATG7, 10 nM | 98.3 ± 12
sgRNA knockout: sgATG7, 100 nM | 34.6 ± 1.8
sgRNA knockout: sgATG7, 1000 nM | 17.7 ± 0.41
sgRNA knockout: sgATG7, 10000 nM | 13.5 ± 0.64
sgRNA knockout: sgERN1, 10 nM | 86.5 ± 7.6
sgRNA knockout: sgERN1, 100 nM | 30.8 ± 5.8
sgRNA knockout: sgERN1, 1000 nM | 14.2 ± 2.9
sgRNA knockout: sgERN1, 10000 nM | 12.8 ± 2.5
sgRNA knockout: sgHSF1, 10 nM | 85.6 ± 6.6
sgRNA knockout: sgHSF1, 100 nM | 36 ± 5.9
sgRNA knockout: sgHSF1, 1000 nM | 12.2 ± 4.4
sgRNA knockout: sgHSF1, 10000 nM | 17.6 ± 0.11
sgRNA knockout: sgHSF2, 10 nM | 93 ± 21
sgRNA knockout: sgHSF2, 100 nM | 29.7 ± 5.1
sgRNA knockout: sgHSF2, 1000 nM | 16 ± 3.3
sgRNA knockout: sgHSF2, 10000 nM | 17.1 ± 3.6
sgRNA knockout: sgKEAP1, 10 nM | 90.3 ± 29
sgRNA knockout: sgKEAP1, 100 nM | 33 ± 8.2
sgRNA knockout: sgKEAP1, 1000 nM | 11.9 ± 2.1
sgRNA knockout: sgKEAP1, 10000 nM | 15.1 ± 1.8
sgRNA knockout: sgNFE2L2, 10 nM | 93.4 ± 10
sgRNA knockout: sgNFE2L2, 100 nM | 36 ± 9.9
sgRNA knockout: sgNFE2L2, 1000 nM | 14.8 ± 5.9
sgRNA knockout: sgNFE2L2, 10000 nM | 20.7 ± 0.86
sgRNA knockout: sgSLC35F2, 10 nM | 76.6 ± 3.4
sgRNA knockout: sgSLC35F2, 100 nM | 30.5 ± 2.8
sgRNA knockout: sgSLC35F2, 1000 nM | 10.6 ± 4.6
sgRNA knockout: sgSLC35F2, 10000 nM | 12.2 ± 1
sgRNA knockout: sgXBP1, 10 nM | 70.2 ± 7.6
sgRNA knockout: sgXBP1, 100 nM | 28.2 ± 12
sgRNA knockout: sgXBP1, 1000 nM | 18.19 ± 0.11
sgRNA knockout: sgXBP1, 10000 nM | 15.5 ± 1.6

CC(=O)Nc1nc(C)c(-c2ccc(Cl)c(S(=O)(=O)NCCO)c2)s1 [PIK93]
Conditions | relative cell number
sgRNA knockout: sgATF3, 10 nM | 104 ± 3
sgRNA knockout: sgATF3, 100 nM | 91.1 ± 17
sgRNA knockout: sgATF3, 1000 nM | 104 ± 24
sgRNA knockout: sgATF3, 10000 nM | 55.6 ± 3.5
sgRNA knockout: sgATF4, 10 nM | 101 ± 15
sgRNA knockout: sgATF4, 100 nM | 101 ± 7.8
sgRNA knockout: sgATF4, 1000 nM | 75.5 ± 8.1
sgRNA knockout: sgATF4, 10000 nM | 46.9 ± 0.91
sgRNA knockout: sgATF6, 10 nM | 86.9 ± 16
sgRNA knockout: sgATF6, 100 nM | 85.3 ± 16
sgRNA knockout: sgATF6, 1000 nM | 95.2 ± 4.7
sgRNA knockout: sgATF6, 10000 nM | 63 ± 8.7
sgRNA knockout: sgATG7, 10 nM | 116 ± 2.5
sgRNA knockout: sgATG7, 100 nM | 104 ± 17
sgRNA knockout: sgATG7, 1000 nM | 78.8 ± 7.7
sgRNA knockout: sgATG7, 10000 nM | 56.1 ± 7.1
sgRNA knockout: sgERN1, 10 nM | 117 ± 32
sgRNA knockout: sgERN1, 100 nM | 107 ± 14
sgRNA knockout: sgERN1, 1000 nM | 92 ± 14
sgRNA knockout: sgERN1, 10000 nM | 49 ± 5
sgRNA knockout: sgHSF1, 10 nM | 91.6 ± 20
sgRNA knockout: sgHSF1, 100 nM | 95.1 ± 3.5
sgRNA knockout: sgHSF1, 1000 nM | 82.4 ± 10
sgRNA knockout: sgHSF1, 10000 nM | 53.7 ± 11
sgRNA knockout: sgHSF2, 10 nM | 102 ± 5.6
sgRNA knockout: sgHSF2, 100 nM | 82.7 ± 56
sgRNA knockout: sgHSF2, 1000 nM | 78.9 ± 11
sgRNA knockout: sgHSF2, 10000 nM | 60.8 ± 14
sgRNA knockout: sgKEAP1, 10 nM | 99.2 ± 12
sgRNA knockout: sgKEAP1, 100 nM | 126 ± 29
sgRNA knockout: sgKEAP1, 1000 nM | 88.4 ± 3
sgRNA knockout: sgKEAP1, 10000 nM | 75 ± 9.1
sgRNA knockout: sgNFE2L2, 10 nM | 111 ± 34
sgRNA knockout: sgNFE2L2, 100 nM | 109 ± 34
sgRNA knockout: sgNFE2L2, 1000 nM | 106 ± 5
sgRNA knockout: sgNFE2L2, 10000 nM | 64.3 ± 2.6
sgRNA knockout: sgSLC35F2, 10 nM | 103 ± 58
sgRNA knockout: sgSLC35F2, 100 nM | 70.4 ± 16
sgRNA knockout: sgSLC35F2, 1000 nM | 83.6 ± 17
sgRNA knockout: sgSLC35F2, 10000 nM | 51.1 ± 4.5
sgRNA knockout: sgXBP1, 10 nM | 97.3 ± 10
sgRNA knockout: sgXBP1, 100 nM | 90.3 ± 7.6
sgRNA knockout: sgXBP1, 1000 nM | 81.3 ± 19
sgRNA knockout: sgXBP1, 10000 nM | 61 ± 3.5
